Taken from: PubChem BioAssay AID504764 (Drosophila RNAi Screening Center, 2011)

- Aim: 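Genome-wide screen for regulators of Notch-driven gene expression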 (primary screen)
- System: Drosophila Kc167 cells
- Knock-down reagent: long dsRNA against Drosophila genes
- Duration: about 5 days (4 days dsRNA, then 24 h after transfection)
- Challenge: transfection of constitutively active membrane-tethered Notch lacking the extracellular domain, read 24 h later
- Read-out: 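Firefly luciferase from an E(spl)m3 reporter with active Notch, plus control-promoter and uninduced reporter wells for normalisation; unnormalised counts, duplicate wells a and b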
- Reading the numbers: induced reporter light, run 1, well a and induced reporter light, run 1, well b: higher = more light from the Notch target reporter with active Notch; control promoter light, run 1, well a and control promoter light, run 1, well b: higher = more light from the viral control promoter (cell number, transfection, viability); uninduced reporter light, run 1, well a: higher = more light from the Notch target reporter without active Notch
- Hit rule: 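Wells with low control signal or poorly matching duplicates excluded; duplicates averaged; per source plate, z beyond ±2 for induced/control log2 ratio or beyond ±1.8 for induced/uninduced marks a hit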
- Calls: active = modifier hit (raised or lowered Notch signal); inactive = not a hit
The screen tested about 22,000 reagents; below is a random part of those with a known target gene and a result. Of all reagents, 403 (1.9%) got an active call. 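Unnormalised raw counts per well; ratio z-scores behind the hit calls and whether each hit raises or lowers signal are not deposited.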 Names joined by + are all predicted targets of the reagent. Not stated in the record: the amount of reagent.

Target gene,amplicon,"induced reporter light, run 1, well a","induced reporter light, run 1, well b","control promoter light, run 1, well a","control promoter light, run 1, well b","uninduced reporter light, run 1, well a",Outcome
RpS18 (Ribosomal protein S18),DRSC07540,12870,8700,11735,13670,1885,inactive
ImpL1 (Ecdysone-inducible gene L1),DRSC11197,1.37e5,1.37e5,89450,65725,11105,inactive
mRpL35 (mitochondrial ribosomal protein L35),DRSC14586,1.78e5,1.68e5,2.10e5,2.01e5,12930,inactive
Nopp140,DRSC11872,92925,82280,90630,98290,6120,inactive
Spn42Da (Serpin 42Da),DRSC05025,2.18e5,2.66e5,2.64e5,2.74e5,21710,inactive
mRpL36 (mitochondrial ribosomal protein L36),DRSC10337,2.46e5,2.49e5,2.48e5,2.37e5,17085,inactive
CG3732,DRSC04410,1.79e5,2.10e5,1.37e5,1.57e5,13555,inactive
kdn (knockdown),DRSC18328,1.83e5,1.96e5,3.40e5,2.82e5,11870,inactive
Or98a (Odorant receptor 98a),DRSC16774,1.27e5,1.33e5,2.12e5,2.07e5,15140,inactive
or (orange),DRSC04329,2.04e5,1.87e5,1.83e5,1.41e5,14325,inactive
Rap2l (Ras-associated protein 2-like),DRSC04646,1.49e5,1.41e5,1.64e5,1.44e5,12842,inactive
Vps45 (Vacuolar protein sorting 45),DRSC16398,86550,69375,73060,60185,5535,inactive
Cbs (Cystathionine beta-synthase),DRSC20553,1.21e5,1.02e5,1.00e5,54470,9390,inactive
CG17770 + Acam,DRSC14110,1.77e5,1.68e5,2.02e5,1.93e5,11675,inactive
CG17770 + Acam,DRSC15264,1.47e5,1.59e5,2.15e5,1.77e5,11525,inactive
CG13193,DRSC06318,95850,96870,1.18e5,97405,9225,inactive
Vm26Aa (Vitelline membrane 26Aa),DRSC03472,49705,41675,43620,34805,3610,inactive
Ldh (Lactate dehydrogenase),DRSC11198,1.98e5,2.08e5,1.93e5,1.64e5,8750,inactive
grass (Gram-positive Specific Serine protease),DRSC15911,1.27e5,1.22e5,2.32e5,2.02e5,14138,inactive
CG10177,DRSC14201,1.49e5,1.40e5,1.55e5,1.63e5,11192,inactive
CG13197,DRSC06322,82095,1.00e5,1.24e5,1.09e5,8375,inactive
CG31199,DRSC15284,1.69e5,1.86e5,1.95e5,2.10e5,14655,inactive
Ir94c (Ionotropic receptor 94c),DRSC13539,69330,61215,1.03e5,78945,8330,inactive
TpnC25D (Troponin C at 25D),DRSC02965,1.56e5,1.27e5,1.33e5,1.40e5,7915,inactive
sta (stubarista),DRSC18838,58755,48545,65935,72030,3610,inactive
Drep3 (DNA fragmentation factor-related protein 3),DRSC06312,98220,96840,1.09e5,1.10e5,10535,inactive
Drep3 (DNA fragmentation factor-related protein 3),DRSC22344,,,,,,inactive
CG30325,DRSC05685,1.20e5,1.07e5,1.90e5,1.38e5,9455,inactive
Ir8a (Ionotropic receptor 8a),DRSC17817,1.48e5,1.15e5,2.45e5,1.88e5,10925,inactive
Ir8a (Ionotropic receptor 8a),DRSC17869,99915,97685,1.28e5,1.77e5,7250,inactive
CG15576,DRSC18064,1.52e5,1.50e5,2.54e5,2.73e5,12070,inactive
Akap200 (A kinase anchor protein 200),DRSC01864,2.08e5,2.10e5,3.01e5,2.60e5,15350,inactive
cue (cueball),DRSC08248,81950,85440,2.37e5,2.35e5,9888,active
CG34225,DRSC05270,1.57e5,1.89e5,2.67e5,3.25e5,20120,inactive
Eig71Ej,DRSC11157,1.56e5,1.40e5,1.76e5,1.51e5,6025,inactive
side-IV (sidestep IV),DRSC14833,2.19e5,2.11e5,2.12e5,2.40e5,18130,inactive
ras (raspberry),DRSC18825,1.49e5,1.38e5,2.49e5,2.08e5,13560,inactive
CG16894,DRSC06634,76335,86750,98240,73915,5228,inactive
CG16894,DRSC21785,,,,,,inactive
CG18635,DRSC06780,1.70e5,1.73e5,2.63e5,2.29e5,12500,inactive
CG31121,DRSC15361,1.65e5,1.56e5,2.09e5,1.74e5,11315,inactive
CG31121,DRSC15363,1.38e5,1.05e5,1.80e5,1.53e5,11355,inactive
Smug,DRSC15762,2.19e5,2.28e5,2.59e5,2.89e5,18595,inactive
CG8157,DRSC07085,1.24e5,1.33e5,1.78e5,1.57e5,9640,inactive
CG8157,DRSC21595,,,,,,inactive
Tmtc1 (Transmembrane O-mannosyltransferase targeting cadherins 1),DRSC00147,50280,42830,49035,58220,3585,inactive
Tmtc1 (Transmembrane O-mannosyltransferase targeting cadherins 1),DRSC00151,1.19e5,1.20e5,1.72e5,1.59e5,8115,inactive
Tmtc1 (Transmembrane O-mannosyltransferase targeting cadherins 1),DRSC00314,1.15e5,1.07e5,97180,75195,9275,inactive
Tmtc1 (Transmembrane O-mannosyltransferase targeting cadherins 1),DRSC00411,1.28e5,1.32e5,99890,88910,8990,inactive
hrg (hiiragi),DRSC07502,25320,28515,29055,28745,2830,inactive
